# Data as given in the supplement of paper PMC8728848.
# The other results are listed elsewhere or left out.
# B1: SJCP1531 (Schistosoma japonicum) (protein)
# chain: MFKVRIINLVNISTVLLLINLLQTKSQVNVEQLVTVLEVNIKAQLKNKTTEVLVEWNPLYQDNSMPEYRKLLDETCKLFLPFVNEKVPPSTYGGECTNANFSEAPQDGSYSRVNAELRLIYKYSDNPQIQTDRLQDDLNDREEFITSESSFVAYNPKFTVKIEKLFIPISESQTTPPPTTAKNDASKKDDDDNGGEDSKAPIDTFAMTASGNKGKKDDDDNGGEDSKAPIDTFAMTASGSKDERSTWTIIGIITLVVLIFVVIGGGITVFVKRC
# How the values were obtained:
# Assay in all cases: glycan array binding signal (z-score within array); higher = stronger binding
# Conditions in all cases: glycan notation: IUPAC condensed, linker removed
# [1] = biological target: Gal(b1-4)GlcNAc(b1-3)Gal(b1-4)Glc
# Method in brief: (§1)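 The Consortium for Functional Glycomics database supplied 3228 glycan arrays, of which those lacking an available protein sequence were dropped. The binding signal, a within-array Z-score, was averaged across arrays of the same protein sequence and across linkers. Negative scores can be read as non-binding.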
# [2] = biological target: Gal(b1-4)GlcNAc(b1-3)Gal(b1-4)GlcNAc
# Method in brief: as §1
# [3] = biological target: Gal(b1-4)GlcNAc(b1-3)Gal(b1-4)GlcNAc(b1-2)Man(a1-3)[Gal(b1-4)GlcNAc(b1-3)Gal(b1-4)GlcNAc(b1-2)Man(a1-6)]Man(b1-4)GlcNAc(b1-4)GlcNAc
# Method in brief: as §1
# [4] = biological target: Gal(b1-4)GlcNAc(b1-3)Gal(b1-4)GlcNAc(b1-2)Man(a1-3)[Gal(b1-4)GlcNAc(b1-3)Gal(b1-4)GlcNAc(b1-2)Man(a1-6)]Man(b1-4)GlcNAc(b1-4)[Fuc(a1-6)]GlcNAc
# Method in brief: as §1
# [5] = biological target: Gal(b1-4)GlcNAc(b1-3)Gal(b1-4)GlcNAc(b1-2)[Gal(b1-4)GlcNAc(b1-3)Gal(b1-4)GlcNAc(b1-6)]Man(a1-6)[Gal(b1-4)GlcNAc(b1-3)Gal(b1-4)GlcNAc(b1-2)Man(a1-3)]Man(b1-4)GlcNAc(b1-4)GlcNAc
# Method in brief: as §1
# [6] = biological target: Gal(b1-4)GlcNAc(b1-3)Gal(b1-4)GlcNAc(b1-2)[Gal(b1-4)GlcNAc(b1-3)Gal(b1-4)GlcNAc(b1-6)]Man(a1-6)[Gal(b1-4)GlcNAc(b1-3)Gal(b1-4)GlcNAc(b1-2)Man(a1-3)]Man(b1-4)GlcNAc(b1-4)[Fuc(a1-6)]GlcNAc
# Method in brief: as §1
# [7] = biological target: Gal(b1-4)GlcNAc(b1-3)Gal(b1-4)GlcNAc(b1-3)Gal(b1-4)GlcNAc
# Method in brief: as §1
# [8] = biological target: Gal(b1-4)GlcNAc(b1-3)Gal(b1-4)GlcNAc(b1-3)Gal(b1-4)GlcNAc(b1-2)Man(a1-3)[Gal(b1-4)GlcNAc(b1-3)Gal(b1-4)GlcNAc(b1-3)Gal(b1-4)GlcNAc(b1-2)Man(a1-6)]Man(b1-4)GlcNAc(b1-4)GlcNAc
# Method in brief: as §1
# [9] = biological target: Gal(b1-4)GlcNAc(b1-3)Gal(b1-4)GlcNAc(b1-3)Gal(b1-4)GlcNAc(b1-2)Man(a1-3)[Gal(b1-4)GlcNAc(b1-3)Gal(b1-4)GlcNAc(b1-3)Gal(b1-4)GlcNAc(b1-2)Man(a1-6)]Man(b1-4)GlcNAc(b1-4)[Fuc(a1-6)]GlcNAc
# Method in brief: as §1
# [10] = biological target: Gal(b1-4)GlcNAc(b1-3)Gal(b1-4)GlcNAc(b1-3)Gal(b1-4)GlcNAc(b1-2)[Gal(b1-4)GlcNAc(b1-3)Gal(b1-4)GlcNAc(b1-3)Gal(b1-4)GlcNAc(b1-6)]Man(a1-6)[Gal(b1-4)GlcNAc(b1-3)Gal(b1-4)GlcNAc(b1-3)Gal(b1-4)GlcNAc(b1-2)Man(a1-3)]Man(b1-4)GlcNAc(b1-4)[Fuc(a1-6)]GlcNAc
# Method in brief: as §1
# [11] = biological target: Gal(b1-4)GlcNAc(b1-3)Gal(b1-4)GlcNAc(b1-3)Gal(b1-4)GlcNAc(b1-3)Gal(b1-4)GlcNAc(b1-2)Man(a1-3)[Gal(b1-4)GlcNAc(b1-3)Gal(b1-4)GlcNAc(b1-3)Gal(b1-4)GlcNAc(b1-3)Gal(b1-4)GlcNAc(b1-2)Man(a1-6)]Man(b1-4)GlcNAc(b1-4)GlcNAc
# Method in brief: as §1
# [12] = biological target: Gal(b1-4)GlcNAc(b1-3)Gal(b1-4)GlcNAc(b1-3)Gal(b1-4)GlcNAc(b1-3)Gal(b1-4)GlcNAc(b1-2)Man(a1-3)[Gal(b1-4)GlcNAc(b1-3)Gal(b1-4)GlcNAc(b1-3)Gal(b1-4)GlcNAc(b1-3)Gal(b1-4)GlcNAc(b1-2)Man(a1-6)]Man(b1-4)GlcNAc(b1-4)[Fuc(a1-6)]GlcNAc
# Method in brief: as §1
# [13] = biological target: Gal(b1-4)GlcNAc(b1-3)Gal(b1-4)GlcNAc(b1-3)Gal(b1-4)GlcNAc(b1-3)Gal(b1-4)GlcNAc(b1-2)[Gal(b1-4)GlcNAc(b1-3)Gal(b1-4)GlcNAc(b1-3)Gal(b1-4)GlcNAc(b1-3)Gal(b1-4)GlcNAc(b1-6)]Man(a1-6)[Gal(b1-4)GlcNAc(b1-3)Gal(b1-4)GlcNAc(b1-3)Gal(b1-4)GlcNAc(b1-3)Gal(b1-4)GlcNAc(b1-2)Man(a1-3)]Man(b1-4)GlcNAc(b1-4)[Fuc(a1-6)]GlcNAc
# Method in brief: as §1
# [14] = biological target: Gal(b1-4)GlcNAc(b1-3)Gal(b1-4)GlcNAc(b1-3)Gal(b1-4)GlcNAc(b1-3)Gal(b1-4)GlcNAc(b1-3)Gal(b1-4)GlcNAc(b1-2)Man(a1-3)[Gal(b1-4)GlcNAc(b1-3)Gal(b1-4)GlcNAc(b1-3)Gal(b1-4)GlcNAc(b1-3)Gal(b1-4)GlcNAc(b1-3)Gal(b1-4)GlcNAc(b1-2)Man(a1-6)]Man(b1-4)GlcNAc(b1-4)GlcNAc
# Method in brief: as §1
# [15] = biological target: Gal(b1-4)GlcNAc(b1-3)Gal(b1-4)GlcNAc(b1-3)Gal(b1-4)GlcNAc(b1-3)Gal(b1-4)GlcNAc(b1-3)Gal(b1-4)GlcNAc(b1-2)Man(a1-3)[Gal(b1-4)GlcNAc(b1-3)Gal(b1-4)GlcNAc(b1-3)Gal(b1-4)GlcNAc(b1-3)Gal(b1-4)GlcNAc(b1-3)Gal(b1-4)GlcNAc(b1-2)Man(a1-6)]Man(b1-4)GlcNAc(b1-4)[Fuc(a1-6)]GlcNAc
# Method in brief: as §1
# [16] = biological target: Gal(b1-4)GlcNAc(b1-3)Gal(b1-4)GlcNAc(b1-3)Gal(b1-4)GlcNAc(b1-3)Gal(b1-4)GlcNAc(b1-3)Gal(b1-4)GlcNAc(b1-2)[Gal(b1-4)GlcNAc(b1-3)Gal(b1-4)GlcNAc(b1-3)Gal(b1-4)GlcNAc(b1-3)Gal(b1-4)GlcNAc(b1-3)Gal(b1-4)GlcNAc(b1-6)]Man(a1-6)[Gal(b1-4)GlcNAc(b1-3)Gal(b1-4)GlcNAc(b1-3)Gal(b1-4)GlcNAc(b1-3)Gal(b1-4)GlcNAc(b1-3)Gal(b1-4)GlcNAc(b1-2)Man(a1-3)]Man(b1-4)GlcNAc(b1-4)[Fuc(a1-6)]GlcNAc
# Method in brief: as §1
# [17] = biological target: Gal(b1-4)GlcNAc(b1-3)Gal(b1-4)GlcNAc(b1-3)Gal(b1-4)GlcNAc(b1-3)Gal(b1-4)GlcNAc(b1-3)Gal(b1-4)GlcNAc(b1-3)Gal(b1-4)GlcNAc(b1-2)Man(a1-3)[Gal(b1-4)GlcNAc(b1-3)Gal(b1-4)GlcNAc(b1-3)Gal(b1-4)GlcNAc(b1-3)Gal(b1-4)GlcNAc(b1-3)Gal(b1-4)GlcNAc(b1-3)Gal(b1-4)GlcNAc(b1-2)Man(a1-6)]Man(b1-4)GlcNAc(b1-4)GlcNAc
# Method in brief: as §1
# [18] = biological target: Gal(b1-4)GlcNAc(b1-3)Gal(b1-4)GlcNAc(b1-3)GalNAc
# Method in brief: as §1
# [19] = biological target: Gal(b1-4)GlcNAc(b1-3)Gal(b1-4)GlcNAc(b1-3)[Gal(b1-4)GlcNAc(b1-3)Gal(b1-4)GlcNAc(b1-6)]GalNAc
# Method in brief: as §1
binder,measurement,setting,value
B1,glycan array binding signal (z-score),[1],-0.137
same,glycan array binding signal (z-score),[2],-0.823
same,glycan array binding signal (z-score),[3],0.797
same,glycan array binding signal (z-score),[4],2.21
same,glycan array binding signal (z-score),[5],0.413
same,glycan array binding signal (z-score),[6],-0.813
same,glycan array binding signal (z-score),[7],1.89
same,glycan array binding signal (z-score),[8],0.391
same,glycan array binding signal (z-score),[9],1.52
same,glycan array binding signal (z-score),[10],2.79
same,glycan array binding signal (z-score),[11],0.778
same,glycan array binding signal (z-score),[12],0.918
same,glycan array binding signal (z-score),[13],0.937
same,glycan array binding signal (z-score),[14],-0.65
same,glycan array binding signal (z-score),[15],0.44
same,glycan array binding signal (z-score),[16],2.63
same,glycan array binding signal (z-score),[17],-0.153
same,glycan array binding signal (z-score),[18],-0.193
same,glycan array binding signal (z-score),[19],2.8

# Given with bars between the fields: entries from further up.
binder | measurement | setting | value
B1 | glycan array binding signal (z-score) | [10] | 2.79
same | glycan array binding signal (z-score) | [11] | 0.778
